The list shows only some results of the screen, not a fair sample: it gathers tests that were run many times, whatever their T/C, doses with no T/C, and many T/C values between a quarter and a half above the control. Other doses and runs of a compound stand elsewhere. T/C gives the treated animals as a percentage of the vehicle group. Some entries give survivors of the animals treated and no T/C: the source files T/C as zero there, which appears to mark a toxic dose or a test without result, not a measured value. Some survivor counts are full or nearly so, which does not show that the dose was tolerated: the source hardly ever lists a survival T/C far under the control, and the zero likely stands for such cases as well. Counts of survivors are from the toxicity check (mostly the fifth day) where no day follows; animals may have died later. Schedules are NCI's codes, read here as Q, the interval in days (D) or hours (H), X, the number of doses. Some entries were tested several times; the values are given in rising order. Some schedules carry Z or #; the key to these is not given. For survival time, the PubChem record calls one and a half times the control and up active, and a quarter to a half above the control has no call in these data; cut-offs in other NCI protocols can differ. Some T/C values carry the count of animals alive at the toxicity check (mostly the fifth day); without a count, all were alive then.
Tested on: BDF1 mice, P388 leukemia ip, median survival T/C
Test: NCI In Vivo Anticancer Drug Screen. Data for tumor model P388 Leukemia (intraperitoneal) in B6D2F1 (BDF1) mice
Details: T/C endpoint: median survival time, higher T/C = longer survival
How it was run: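 Antitumour effect was judged in vivo: survival in drug-treated mice, normalised to that of vehicle-dosed controls, gives the reported T/C.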

[1] = dose: 200.0 mg/kg/injection, schedule: Q01DX009 (ip), vehicle: saline with Tween-80

For `COC(C(=O)C(O)C(C)O)C1Cc2cc3cc(OC4CC(OC(C)=O)C(OC5CC(O)C(OC)C(C)O5)C(C)O4)cc(O)c3c(O)c2C(=O)C1OC1CC(OC2CC(OC3CC(C)(O)C(OC(=O)C(C)C)C(C)O3)C(O)C(C)O2)C(O)C(C)O1` (centres undefined), the T/C (dose: 0.1 mg/kg/injection, schedule: Q01DX010 (ip), vehicle: saline) was 145 % of control, the T/C (dose: 0.2 mg/kg/injection, schedule: Q01DX010 (ip), vehicle: saline) was 142 % of control and the T/C (dose: 0.25 mg/kg/injection, schedule: Q01DX009 (ip), vehicle: other) was 141 % of control. For the same molecule, the T/C (dose: 0.5 mg/kg/injection, schedule: Q01DX009 (ip), vehicle: other) was 145 % of control, the T/C (dose: 0.5 mg/kg/injection, schedule: Q01DX010 (ip), vehicle: saline) was 145 % of control [5 of 6 alive] and the T/C (dose: 0.8 mg/kg/injection, schedule: Q01DX010 (ip), vehicle: saline) was 138 % of control. For the same molecule, the T/C (dose: 1.0 mg/kg/injection, schedule: Q01DX001 (ip), vehicle: carboxymethylcellulose (CMC)) was 130 % of control, the T/C (dose: 1.0 mg/kg/injection, schedule: Q01DX001 (ip), vehicle: other) was 129 % of control and the T/C (dose: 1.0 mg/kg/injection, schedule: Q01DX001 (ip), vehicle: saline) was 125 and 133 % of control. For the same molecule, the T/C (dose: 1.0 mg/kg/injection, schedule: Q01DX009 (ip), vehicle: other) was 145 % of control, the T/C (dose: 2.0 mg/kg/injection, schedule: Q01DX001 (ip), vehicle: carboxymethylcellulose (CMC)) was 140 % of control and the T/C (dose: 2.0 mg/kg/injection, schedule: Q01DX001 (ip), vehicle: other) was 141 % of control. The T/C (dose: 2.0 mg/kg/injection, schedule: Q01DX001 (ip), vehicle: saline) was 133 % of control, the survivor count (dose: 2.0 mg/kg/injection, schedule: Q01DX009 (ip), vehicle: saline) was 1 of 6 and the survivor count (dose: 2.0 mg/kg/injection, schedule: Q01DX010 (ip), vehicle: saline) was 5 of 6. For the same molecule, the T/C (dose: 2.0 mg/kg/injection, schedule: Q## X008 (ip), vehicle: carboxymethylcellulose (CMC)) was 140 % of control, the survivor count (dose: 3.0 mg/kg/injection, schedule: Q01DX010 (ip), vehicle: saline) was 0 of 6 and 2 of 6 and the T/C (dose: 4.0 mg/kg/injection, schedule: Q01DX001 (ip), vehicle: other) was 133 % of control [5 of 6 alive]. For the same molecule, the survivor count (dose: 4.0 mg/kg/injection, schedule: Q01DX001 (ip), vehicle: saline) was 5 of 6 and 6 of 6, the survivor count (dose: 4.0 mg/kg/injection, schedule: Q01DX009 (ip), vehicle: saline) was 3 of 6 and the survivor count (dose: 4.0 mg/kg/injection, schedule: Q01DX010 (ip), vehicle: saline) was 2 of 6, 5 of 6, 6 of 6. For the same molecule, the survivor count (dose: 4.0 mg/kg/injection, schedule: Q## X003 (ip), vehicle: carboxymethylcellulose (CMC)) was 1 of 10, the survivor count (dose: 6.0 mg/kg/injection, schedule: Q01DX010 (ip), vehicle: saline) was 0 of 6 and the survivor count (dose: 6.4 mg/kg/injection, schedule: Q01DX010 (ip), vehicle: saline) was 0 of 6. For the same molecule, the survivor count (dose: 8.0 mg/kg/injection, schedule: Q01DX001 (ip), vehicle: carboxymethylcellulose (CMC)) was 8 of 10, the T/C (dose: 8.0 mg/kg/injection, schedule: Q01DX001 (ip), vehicle: other) was 129 % of control and the survivor count (dose: 8.0 mg/kg/injection, schedule: Q01DX001 (ip), vehicle: saline) was 0 of 6 and 4 of 6. For the same molecule, the survivor count (dose: 8.0 mg/kg/injection, schedule: Q01DX009 (ip), vehicle: saline) was 1 of 6, the survivor count (dose: 8.0 mg/kg/injection, schedule: Q## X003 (ip), vehicle: carboxymethylcellulose (CMC)) was 0 of 10 and the survivor count (dose: 8.0 mg/kg/injection, schedule: Q## X008 (ip), vehicle: carboxymethylcellulose (CMC)) was 0 of 10. For the same molecule, the survivor count (dose: 8.0 mg/kg/injection, schedule: Q## X024 (ip), vehicle: carboxymethylcellulose (CMC)) was 0 of 10, the survivor count (dose: 12.0 mg/kg/injection, schedule: Q01DX010 (ip), vehicle: saline) was 0 of 6 and the survivor count (dose: 16.0 mg/kg/injection, schedule: Q01DX001 (ip), vehicle: saline) was 1 of 6. The T/C (dose: 100.0 micrograms/kg/injection, schedule: Q01DX010 (ip), vehicle: saline) was 140 % of control and the T/C (dose: 250.0 micrograms/kg/injection, schedule: Q01DX010 (ip), vehicle: saline) was 140 % of control.
`NNCCC(=O)O` was tested, and the T/C (dose: 264.0 mg/kg/injection, schedule: Q04DX003 (ip), vehicle: saline) was 133 % of control and the T/C (dose: 400.0 mg/kg/injection, schedule: Q04DX003 (ip), vehicle: saline) was 125 % of control.
With `CN=C(N)c1ccc(NC(=O)c2ccc(C(=O)Nc3ccc(C(N)=NC)cc3)cc2)cc1` the T/C (dose: 120.0 mg/kg/injection, schedule: Q01DX010 (ip), vehicle: saline) was 140 % of control.
`N=c1ccn2c(n1)OC1C(OP(=O)(O)O)C(CO)OC12` (centres undefined) was tested, and the T/C (dose: 78.0 mg/kg/injection, schedule: Q04DX003 (ip), vehicle: saline) was 136 % of control.
With `CN1CCN(c2nc3ccccc3n3nnnc23)CC1` the survivor count (dose: 75.0 mg/kg/injection, schedule: Q01DX009 (ip), vehicle: saline with Tween-80) was 7 of 7.
For `C=C1C(=O)O[C@@H]2CC(CO)=C([C@@H](C)CCCO)[C@@H](OC(=O)/C(C)=C\C)[C@H]12`, the T/C (dose: 32.0 mg/kg/injection, schedule: Q01DX009 (ip), vehicle: saline + alcohol) was 128 % of control.
For `Cc1c2oc3c(C)ccc(C(=O)NC(C)Cc4ccccc4)c3nc-2c(C(=O)NC(C)Cc2ccccc2)c(N)c1=O` (centres undefined), the survivor count (dose: 400.0 mg/kg/injection, schedule: Q04DX002 (ip), vehicle: DMSO) was 3 of 6.
With `O=C1C=C(N2CC2)c2ccccc2C1=O` the T/C (dose: 22.0 mg/kg/injection, schedule: Q04DX003 (ip), vehicle: saline with Tween-80) was 127 % of control, the survivor count (dose: 33.0 mg/kg/injection, schedule: Q04DX003 (ip), vehicle: saline with Tween-80) was 2 of 6 and the survivor count (dose: 37.5 mg/kg/injection, schedule: Q04DX003 (ip), vehicle: saline with Tween-80) was 0 of 6. For the same molecule, the survivor count (dose: 40.0 mg/kg/injection, schedule: Q01DX009 (ip), vehicle: Klucel (hydroxypropylcellulose) (HPC)) was 0 of 6, the survivor count (dose: 50.0 mg/kg/injection, schedule: Q04DX003 (ip), vehicle: saline with Tween-80) was 1 of 6 and the survivor count (dose: 75.0 mg/kg/injection, schedule: Q04DX003 (ip), vehicle: saline with Tween-80) was 0 of 6.
`CCOC(CN1CCN(CC(C)C(=O)c2ccccc2)CC1)c1ccccc1` (centres undefined) was tested, and the survivor count [1] was 0 of 6.
For `O=[N+]([O-])c1cccc(C[n+]2ccccc2C2OCCO2)c1`, the survivor count (dose: 50.0 mg/kg/injection, schedule: Q01DX009 (ip), vehicle: saline) was 2 of 6, the survivor count (dose: 80.0 mg/kg/injection, schedule: Q01DX009 (ip), vehicle: saline) was 0 of 6 and the survivor count (dose: 105.0 mg/kg/injection, schedule: Q04DX003 (ip), vehicle: saline) was 0 of 6. For the same molecule, the survivor count (dose: 120.0 mg/kg/injection, schedule: Q01DX009 (ip), vehicle: saline) was 0 of 6.
In the case of `CC1CCCC/C1=N/NC(=O)c1ccccc1` (centres undefined), the survivor count [1] was 6 of 6, the survivor count (dose: 200.0 mg/kg/injection, schedule: Q04DX003 (ip), vehicle: saline with Tween-80) was 6 of 6 and the survivor count (dose: 400.0 mg/kg/injection, schedule: Q04DX003 (ip), vehicle: saline with Tween-80) was 2 of 6.
`c1cc[c]([Sn]([c]2ccccc2)([c]2ccccc2)[n]2cnc3ccccc32)cc1` was tested, and the survivor count (dose: 1.75 mg/kg/injection, schedule: Q01DX009 (ip), vehicle: Klucel (hydroxypropylcellulose) (HPC)) was 4 of 6, the survivor count (dose: 3.5 mg/kg/injection, schedule: Q01DX009 (ip), vehicle: Klucel (hydroxypropylcellulose) (HPC)) was 3 of 6 and the survivor count (dose: 14.0 mg/kg/injection, schedule: Q01DX009 (ip), vehicle: Klucel (hydroxypropylcellulose) (HPC)) was 3 of 6. For the same molecule, the survivor count (dose: 28.0 mg/kg/injection, schedule: Q01DX009 (ip), vehicle: Klucel (hydroxypropylcellulose) (HPC)) was 3 of 6 and the survivor count (dose: 40.0 mg/kg/injection, schedule: Q04DX003 (ip), vehicle: Klucel (hydroxypropylcellulose) (HPC)) was 1 of 6.
With `Nc1ccc(O)cc1` the survivor count (dose: 600.0 mg/kg/injection, schedule: Q01DX009 (ip), vehicle: saline sonified) was 1 of 6.
For `CN(C)C1=C(N2CC2)C(=O)C(N(C)C)=C(N2CC2)C1=O`, the T/C (dose: 0.12 mg/kg/injection, schedule: Q01DX009 (ip), vehicle: saline) was 131 % of control.
`CC(=O)C1CC2c3ccccc3C1c1ccccc12` (centres undefined) was tested, and the survivor count (dose: 400.0 mg/kg/injection, schedule: Q01DX009 (ip), vehicle: saline with Tween-80) was 6 of 6.
